In all, about 350,000 compounds went through this assay and about 6,000 (1.7%) were called active. Inconclusive means that the source gave no clear call. Such entries were picked first, then a sample of the others. Rule as the data show it: active = CPE inhibition above about 20% (passing the limit was not always enough); inconclusive = no clear call, values can overlap the other calls; tested in BHK-21 cells.
experiment: protection of cells from dengue 2 killing – plate reader, single concentration, primary screen (AID 651640); details: DENV2-infected cells, cytopathic effect rescue, at 9.99 µM, hits give high values;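 also: 0% = median of neutral control wells and 100% = median of positive control wells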

SMILES	CPE inhibition
CO[C@H]1CN(C)C(=O)c2cc(NC(=O)C3CCCCC3)ccc2OC[C@H](C)NC[C@H]1C	inconclusive: 69.7%
O=C(O)COCC(=O)Nc1ccc(Oc2ncnc3cc(Cl)ccc23)nc1	inconclusive: 45.9%
COc1ccc(C(=O)Nc2cccc(C(=O)O)c2)cc1S(=O)(=O)N1CCCC1	inconclusive: 29.7%
CCc1ccc(NC(=O)Cn2c(=O)oc3cc(S(=O)(=O)N4CCOCC4)ccc32)cc1	inconclusive: 36.8%
Oc1ccccc1-c1nnc2n1CCCCC2	inconclusive: 45.2%
COc1ccc(OC)c(CN2C(=O)CN(S(C)(=O)=O)CC2(C)C(=O)NCc2ccccc2)c1 (stereo not drawn)	active: 32.4%
C[C@@H]1CN([C@@H](C)CO)C(=O)c2cccc(NC(=O)C3CCOCC3)c2O[C@H]1CN(C)Cc1ccc(C(F)(F)F)cc1	inconclusive: 21.8%
CC(=O)Nc1cc(-c2ccccc2Cl)cn2c(-c3ccc(S(C)(=O)=O)cc3)cnc12	inconclusive: 36.1%
COc1ccc2c3c([nH]c2c1)[C@@H](CO)N(Cc1ccccc1F)CC31CCN(S(C)(=O)=O)CC1	inconclusive: 59%
COc1ccc(NS(=O)(=O)c2cccc(C(=O)N3CCCCCCC3)c2)cc1	inconclusive: 64.7%
C[C@@H]1CN([C@@H](C)CO)S(=O)(=O)c2ccc(/C=C/c3ccccc3)cc2O[C@@H]1CN(C)C(=O)Nc1ccc(F)cc1	inactive: 5.02%
CN(C)CC#Cc1ccc([C@@H]2[C@@H](CO)N3C(=O)CN(C(=O)c4cccnc4)C[C@H]23)cc1	inactive: 11.2%
COc1ccc(NC(=O)N(C)C[C@H]2Oc3c(cccc3N(C)C)C(=O)N([C@@H](C)CO)C[C@H]2C)cc1	inconclusive: 27.3%
CC[n+]1c(/C=C/c2ccc(OC)c(OC)c2)ccc2ccccc21	inconclusive: 22.2%
C[C@H](CO)N1C[C@H](C)[C@H](CN(C)S(=O)(=O)c2cn(C)cn2)Oc2ccc(NC(=O)NC3CCCCC3)cc2CC1=O	inactive: 6.41%
COc1ccc(S(=O)(=O)N(C)C[C@@H]2Oc3ccc(NC(=O)Cc4ccccc4)cc3C(=O)N([C@H](C)CO)C[C@H]2C)cc1	inactive: 19.9%
Cc1cccc(N(C(=O)Cn2nnc3ccccc32)C(C(=O)NC(C)(C)C)c2ccsc2)c1 (stereo not drawn)	active: 23.6%
O=C(NNC(=O)c1ccccc1O)c1ccccc1O	active: 48.5%
CN(C)c1ccc2c(c1)[C@H]1C[C@@H](CC(=O)NCc3ccc(Oc4ccccc4)cc3)O[C@H](CO)[C@H]1O2	active: 82.5%
O=C(Nc1cccc(Cl)c1)N[C@H]1CC[C@H](CCNC(=O)C2CCCCC2)O[C@@H]1CO	inactive: 10.1%
CC(C)CC#Cc1ccc2c(c1)O[C@@H](CN(C)Cc1ccccn1)[C@H](C)CN([C@@H](C)CO)S2(=O)=O	inactive: 2.94%
Cc1ccc(Cl)cc1S(=O)(=O)N1CCC(C(=O)NC2CCN(Cc3ccccc3)CC2)CC1	inconclusive: 26.1%
C[C@@H]1CN([C@H](C)CO)C(=O)c2cccc(NC(=O)Nc3cccc4ccccc34)c2O[C@H]1CN(C)C(=O)Nc1ccc(C(F)(F)F)cc1	inactive: 14.6%
CCN1[C@H](C(=O)NCc2ccccc2)[C@@H](CO)[C@@H]2Cn3c(ccc(-c4ccccc4)c3=O)[C@@H]21	inactive: -3.63%
CS(=O)(=O)N1CCCCN2[C@H](CO)[C@H](c3ccc(C#Cc4ccccn4)cc3)[C@@H]2C1	active: 33.2%

SMILES	CPE inhibition
O=[N+]([O-])c1ccc(Oc2cnc3ccccc3n2)cc1	inconclusive: 27.2%
COc1cccc(CNC(=O)Cc2ccc(-n3c(=O)[nH]c4ccccc4c3=O)cc2)c1	inconclusive: 41.7%
O=C(CCCNC(=O)c1ccc(Cl)cc1)Nc1nccs1	inactive: -9.6%
Cc1n[nH]c(C)c1S(=O)(=O)N(CC(=O)N1CCc2ccccc21)c1ccc(C(C)C)cc1	inconclusive: 33.8%
CCS(=O)(=O)N1CCCCN2[C@H](C1)[C@@H](c1ccc(-c3ccc(C#N)cc3)cc1)[C@@H]2CO	active: 41.3%
CN(Cc1ccco1)C(=O)Cn1ncc2c([nH]c3ccccc32)c1=O	inactive: 20%
O=C(Cc1cccnc1)N[C@@H]1CC[C@H](CCn2cc(-c3ccccc3F)nn2)O[C@@H]1CO	active: 44.8%
O=C(NCc1ccco1)c1cccc(-c2ccc3nncn3c2)c1	inconclusive: 51.1%
CC1CCCCN1C(=O)COC(=O)C1CCN(S(=O)(=O)c2ccc(Cl)c(C(F)(F)F)c2)CC1 (stereo not drawn)	active: 27.5%
CO[C@@H]1CN(C)C(=O)c2cc(NC(=O)NC3CCCCC3)ccc2OC[C@H](C)N(CC2CC2)C[C@H]1C	inactive: 5.48%
COc1ccc(-c2ccc([C@H]3[C@@H](CO)N4CCCCN(C(=O)NC(C)C)C[C@H]34)cc2)cc1	active: 30.9%
COCC(=O)Nc1ccc2c(c1)[C@H]1C[C@@H](CC(=O)N3CCN(C)CC3)O[C@@H](CO)[C@H]1O2	inconclusive: 37.3%
COc1ccccc1NC(=O)CSc1ccc2nnc(CCNC(=O)c3ccccc3)n2n1	inconclusive: 56.1%
CCCCC(=O)NC(c1ccc(N(CC)CC)cc1)c1ccc2cccnc2c1O (stereo not drawn)	inactive: -3.35%
O=C(c1ccc2c(c1)OCO2)N1C[C@H]2[C@@H](c3ccccc31)[C@H](CO)N2Cc1ccc2c(c1)OCO2	inactive: -0.938%
Cc1[nH][nH]c(=O)c1N=Nc1ccc(F)cc1	inconclusive: 33%
CCC1Nc2ncnc(N3CCN(c4ccccc4)CC3)c2N(Cc2ccc(OC)cc2)C1=O (stereo not drawn)	inconclusive: 23.4%
C[C@H]1CN([C@@H](C)CO)C(=O)Cc2cc(NC(=O)C3CCCCC3)ccc2O[C@@H]1CN(C)Cc1ccc(C(F)(F)F)cc1	active: 39.2%
CCC(=O)Nc1ccc2c(c1)C(=O)N(C)C[C@H](OC)[C@@H](C)CN(C(C)=O)[C@@H](C)CO2	active: 54.3%
COc1ccccc1C(C[N+](=O)[O-])c1c(N)n(C)c(=O)n(C)c1=O (stereo not drawn)	inactive: 3.03%
Cc1noc(C)c1NC(=O)N(C)C[C@H]1OCCCC[C@H](C)Oc2ccc(NS(C)(=O)=O)cc2C(=O)N([C@@H](C)CO)C[C@H]1C	inconclusive: 64.4%
O=C(Oc1ccccc1F)c1ccc2c(=O)n3c(nc2c1)CCC3	inconclusive: 23%
CC(C)Cn1c(N)cc(=O)n(C)c1=O	inconclusive: 41.3%
O=S(=O)(Nc1cccc(-n2cnnn2)c1)c1ccccc1	inactive: 5.7%
COc1ccc(C)cc1NC(=O)C(=O)NNC(=O)COc1ccc(Cl)cc1	inconclusive: 30.7%

SMILES	CPE inhibition
CCOC(=O)[C@]12CCC=C1N(Cc1ccc3c(c1)OCO3)C(=O)[C@H](CC(=O)N1CCCCC1)C2	inactive: -1.41%
O=C(C[C@H]1C[C@H]2c3cc(NC(=O)Nc4ccccc4)ccc3O[C@H]2[C@H](CO)O1)NCc1cccc(F)c1	inconclusive: 26.4%
CCc1ccc(OCC(=O)O/N=C(\N)c2ccncc2)cc1	inconclusive: 45.8%
N#C[C@@H]1[C@@H](c2ccccc2C2=CCCCC2)[C@H](CO)N1C(=O)c1cccc(F)c1	inconclusive: 24.6%
COCCNC(=O)Cn1nc(-c2ccccc2F)ccc1=O	inconclusive: 29.6%
CCc1ccc(CN2CCC(n3nccc3NC(=O)c3ccc4c(c3)OCO4)CC2)cc1	inconclusive: 29.1%
CCOc1cccc(C(=O)Nc2ccc3ccccc3c2)c1	inconclusive: 20.9%
COc1ccccc1C(=O)N/N=C(\C)CC(=O)Nc1ccc(Cl)cn1	inconclusive: 24.3%
COc1ccc(CN(C)C[C@H]2Oc3ccc(NS(=O)(=O)c4ccc(OC)cc4)cc3CC(=O)N([C@@H](C)CO)C[C@@H]2C)cc1	inactive: -2.79%
Cc1ccc2oc(=O)n(CCOc3ccccc3C)c2c1	inactive: -0.862%
O=C1ON=C(c2ccccc2)/C1=C\c1ccco1	inconclusive: 23.7%
C[C@@H]1CN([C@H](C)CO)S(=O)(=O)c2ccc(C#CCC3CCCC3)cc2O[C@H]1CN(C)C(=O)c1cnccn1	inconclusive: 28.1%
CC1(c2nnc(-c3cccc(Cl)c3)o2)CC(c2ccc(Cl)cc2)=NO1 (stereo not drawn)	inconclusive: 34.2%
CCN1[C@@H]2c3ccc(C4=CCCCC4)c(=O)n3C[C@H]1[C@H](CO)[C@H]2C(=O)NCc1ccccn1	inactive: 13.1%
COc1ccc(C(C)(NC(C)=O)c2nc(-c3cc(F)cc(F)c3)cs2)cc1 (stereo not drawn)	inactive: -7.32%
CCCOc1cccc(C(=O)N2CCN(C(=O)C3CCCO3)CC2)c1 (stereo not drawn)	inconclusive: 27.2%
COc1ccc(NC(=O)Nc2ccc3c(c2)C(=O)N([C@H](C)CO)C[C@@H](C)[C@@H](CN(C)S(=O)(=O)c2ccc(Cl)cc2)OCCCC[C@H](C)O3)cc1	active: 40%
C[C@@H]1CN([C@@H](C)CO)C(=O)Cc2cc(NS(=O)(=O)c3ccc(F)cc3)ccc2O[C@@H]1CN(C)Cc1ccc(C(=O)O)cc1	active: 29.8%
CN(C)C(=O)c1cccc(-c2ccc3c(c2)[C@@H]2[C@@H](CCN2Cc2ccccc2F)[C@H](CO)N3)c1	inactive: -7.85%
O=C(NCC[C@H]1CC[C@H](NS(=O)(=O)Cc2ccccc2)[C@H](CO)O1)C1CCOCC1	inactive: 4.37%
CC(C)NC(=O)N(C)C[C@@H]1Oc2cc(C#C[C@@H](C)O)ccc2S(=O)(=O)N([C@@H](C)CO)C[C@H]1C	inconclusive: 25.5%
CCCCCCCCCCCCCCCCn1cc[n+](C)c1	inactive: -21.2%
Fc1ccc(OCCOCCN2CCCC2)cc1	inconclusive: 37.4%

Molecules shown so far with a CF3 group, in the order listed:
SMILES	CPE inhibition
C[C@@H]1CN([C@@H](C)CO)C(=O)c2cccc(NC(=O)C3CCOCC3)c2O[C@H]1CN(C)Cc1ccc(C(F)(F)F)cc1	inconclusive: 21.8%
C[C@@H]1CN([C@H](C)CO)C(=O)c2cccc(NC(=O)Nc3cccc4ccccc34)c2O[C@H]1CN(C)C(=O)Nc1ccc(C(F)(F)F)cc1	inactive: 14.6%
CC1CCCCN1C(=O)COC(=O)C1CCN(S(=O)(=O)c2ccc(Cl)c(C(F)(F)F)c2)CC1 (stereo not drawn)	active: 27.5%
C[C@H]1CN([C@@H](C)CO)C(=O)Cc2cc(NC(=O)C3CCCCC3)ccc2O[C@@H]1CN(C)Cc1ccc(C(F)(F)F)cc1	active: 39.2%

Reference: PubChem BioAssay AID651640 (Broad Institute, 2012)
